In publication PMC10977726:
Substitutions are numbered along the chain they refer to. These are yes or no findings as the source states them, for the method shown. Some binding calls cover weakened binding; strength is not graded here.

Protein sequences, listed by entry. Tags and fused reporters are not part of them. Residues count along the entry.
UniProt P02768, residues 25-609: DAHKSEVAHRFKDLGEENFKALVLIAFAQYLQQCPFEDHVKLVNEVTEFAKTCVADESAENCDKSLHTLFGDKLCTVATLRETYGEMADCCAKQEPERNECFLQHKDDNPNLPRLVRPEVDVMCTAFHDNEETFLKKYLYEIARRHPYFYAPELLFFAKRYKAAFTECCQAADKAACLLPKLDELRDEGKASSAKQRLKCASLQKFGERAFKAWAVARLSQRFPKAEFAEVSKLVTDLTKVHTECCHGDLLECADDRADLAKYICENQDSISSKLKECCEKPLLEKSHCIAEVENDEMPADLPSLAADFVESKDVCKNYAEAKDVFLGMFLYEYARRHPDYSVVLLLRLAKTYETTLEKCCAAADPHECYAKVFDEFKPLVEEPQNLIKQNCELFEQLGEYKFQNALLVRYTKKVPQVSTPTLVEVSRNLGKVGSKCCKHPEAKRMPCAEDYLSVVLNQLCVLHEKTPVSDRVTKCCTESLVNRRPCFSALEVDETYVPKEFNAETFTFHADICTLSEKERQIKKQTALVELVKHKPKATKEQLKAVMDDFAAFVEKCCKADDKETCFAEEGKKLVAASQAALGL
UniProt P01127, residues 82-190: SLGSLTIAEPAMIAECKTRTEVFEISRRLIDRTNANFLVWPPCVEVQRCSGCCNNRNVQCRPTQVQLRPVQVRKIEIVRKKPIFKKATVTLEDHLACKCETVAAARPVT

B1: Hs-Chr-1 displayed on M13 phage (designed binder)
chain: VSCTTSKECWSVCQRLHNTSKGRCDEICGCRW
B2: Hs-Chr-2 displayed on M13 phage (designed binder)
chain: B1 chain with K21R, D25E, R31S, W32N
B3: P-AST-3 (designed binder)
chain: GCAFEGESCNVQFYPCCVSMKLMCIPGNPDGTCYYL
B4: Hs-Chr-3 displayed on M13 phage (designed binder)
chain: VSCTTSKECWSVCQRLHNTSYGTGCMRNTCYCTP

Assays:
[1] = target: human serum albumin, biotinylated (human) (UniProt P02768); test: ELISA; […], room temperature; […]; only the target purified
[2] = target: biotin-PDGF-bb (human) (UniProt P01127); test: SPR; […]; Biacore S200, […] (PBS with 0.05% Tween 20, pH 7.4); […]; both purified

Binder	binding [1]	binding [2]
B1	binds	
B2	binds	
B3		no binding (tested: >50 µM)
B4	binds	
